# Screen size: about 390,000 compounds; about 4,000 (1%) were called active. This list was built around the results that the source calls inconclusive (neither active nor inactive); the mix of calls is not that of the screen. Calls follow the shape of the dose curve; as a rule, active = well fitted inhibition curve with a large enough effect; inconclusive = small, poorly fitted or top-dose-only effect, or another doubt; inactive = no such curve, though single readings can be large or run the other way. A potency beside an inconclusive call is a rough fit, not a confirmed value.
# The chains behind the UniProt entries cited, without tags or fusion partners. Where a name states a change or a piece, a line headed by the entry shows the natural chain unless it says otherwise.
# UniProt Q9UNA4: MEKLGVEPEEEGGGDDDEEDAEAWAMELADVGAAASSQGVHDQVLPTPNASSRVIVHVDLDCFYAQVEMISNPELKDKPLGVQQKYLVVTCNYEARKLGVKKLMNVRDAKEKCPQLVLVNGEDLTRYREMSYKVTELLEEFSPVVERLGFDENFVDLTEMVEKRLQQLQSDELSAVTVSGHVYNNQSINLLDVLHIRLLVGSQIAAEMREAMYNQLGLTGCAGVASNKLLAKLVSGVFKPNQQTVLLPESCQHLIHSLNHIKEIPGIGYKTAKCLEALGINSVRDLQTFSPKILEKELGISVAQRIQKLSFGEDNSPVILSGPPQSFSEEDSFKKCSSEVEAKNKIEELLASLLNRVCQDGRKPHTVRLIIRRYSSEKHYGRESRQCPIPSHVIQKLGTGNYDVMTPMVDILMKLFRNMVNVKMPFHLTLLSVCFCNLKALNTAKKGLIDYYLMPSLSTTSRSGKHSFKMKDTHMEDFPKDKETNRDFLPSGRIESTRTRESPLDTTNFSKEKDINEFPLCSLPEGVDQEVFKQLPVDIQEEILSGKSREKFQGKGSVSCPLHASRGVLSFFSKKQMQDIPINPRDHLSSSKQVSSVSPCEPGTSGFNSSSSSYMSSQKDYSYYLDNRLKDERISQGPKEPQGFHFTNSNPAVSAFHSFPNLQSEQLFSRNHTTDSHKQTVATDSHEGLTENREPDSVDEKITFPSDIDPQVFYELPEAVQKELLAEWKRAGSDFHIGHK
# Target: DNA polymerase iota (Homo sapiens) (UniProt Q9UNA4)
# Assay: qHTS for Inhibitors of Polymerase Iota
# Details: Pol iota fluorescent replication assay, 10 min; series mostly up to 115 µM
# Outline: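 Fluorescent replication assay read twice, at 0 min and 10 min after adding 50 nM (final) substrate. Enzyme (10 nM) and compounds were first incubated 15 min at room temperature; enzyme-free buffer wells were negative controls.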
# Potency is read from the fitted curve at half-maximal effect.
row,SMILES,Potency
1,O=C(CSc1nc2cc([N+](=O)[O-])ccc2n1-c1ccccc1)NCc1ccc2c(c1)OCO2,"inconclusive: 50.1 µM [inhibitor, partial curve, poor fit]"
2,CCOC(=O)CN1C(=O)S/C(=C\c2ccc(-c3cccc(C(=O)O)c3C)o2)C1=O,"inconclusive: 22.4 µM [inhibitor, single point]"
3,CCOc1ccccc1OCC(=O)NN1Cc2ccccc2C1=N,"inconclusive: 89.1 µM [inhibitor, partial curve, poor fit]"
4,Cc1nn(-c2ccccc2)c(C)c1/C=N/NC(=O)c1cc(-c2ccc(Br)s2)[nH]n1,"inconclusive: 89.1 µM [inhibitor, partial curve, poor fit]"
5,O=Cc1ccc(-c2cccc(C(=O)O)c2)o1,"inconclusive: 44.7 µM [inhibitor, partial curve]"
6,Cc1ccc([C@@H]2C3COCC=C3C(C#N)=C(N)C2(C#N)C#N)o1 (stereo partly drawn),"inconclusive: 31.6 µM [inhibitor, single point]"
7,O=C1NC2=C(CCc3ccccc32)C(c2ccc(Br)cc2)N1 (stereo not drawn),"inconclusive: 89.1 µM [inhibitor, partial curve, poor fit]"
8,COc1ccc2c(c1)c(C(C)=O)c(C)n2C,inactive
9,CCCCOc1ccc(C(=O)NCCc2csc3nc(-c4ccccc4F)nn23)cc1,inactive
10,Cc1ccc(Cl)cc1N(C)C(=O)c1cc2ccc3cccnc3c2[nH]1,"inconclusive: 89.1 µM [inhibitor, single point]"
11,Cc1nc2sc3c(c2c2nnc(SCC(=O)NCc4ccco4)n12)CCCC3,"inconclusive: 20 µM [inhibitor, full curve, poor fit]"
12,CCOC(=O)c1c(NC(C)=O)sc2c(OCC(O)CN(CC)CC)c(Br)ccc12 (stereo not drawn),"inconclusive: 14.1 µM [inhibitor, partial curve, poor fit]"
13,O=C(CBr)c1ccc(Oc2ccc(C(=O)C[n+]3ccccc3Cl)cc2)cc1,"inconclusive: 15.8 µM [inhibitor, partial curve]"
14,Nc1nc(SCC(=O)O)c2[nH]cnc2n1,"inconclusive: 0.708 µM [inhibitor, full curve, poor fit]"
15,Cc1cc(C(=O)CSc2nnc(C3COc4ccccc4O3)n2C)c(C)n1-c1ccc(F)cc1 (stereo not drawn),"inconclusive: 39.8 µM [inhibitor, single point]"
16,O=C(CSc1ccccn1)Nc1cccc(NC(=O)CSc2ccccn2)n1,"inconclusive: 2.82 µM [inhibitor, full curve, poor fit]"
17,Cc1cc(/C=C2\SC(=S)NC2=O)c(C)n1-c1cccc(O)c1,"inconclusive: 20 µM [inhibitor, full curve]"
18,CSc1ccc(CCNC(=O)c2ccc3c(c2)c(C)c(C)n3Cc2ccc(F)cc2)cc1,"inconclusive: 79.4 µM [inhibitor, partial curve, poor fit]"
19,O=S(=O)(c1ccc(NC(=S)NN=C2CCCCC2)cc1)N1CCOCC1,inactive
20,CCn1c(-c2ccc(-c3ccccc3)cc2)c[nH]c1=S,"inconclusive: 25.1 µM [inhibitor, partial curve, poor fit]"
21,C=CCC(CC=C)(C(=O)O)c1ccccc1,"inconclusive: 70.8 µM [inhibitor, partial curve, poor fit]"

# Single entries from the entries so far.
# Value of CCOc1ccccc1OCC(=O)NN1Cc2ccccc2C1=N under Potency: inconclusive: 89.1 µM [inhibitor, partial curve, poor fit]
# Value of C=CCC(CC=C)(C(=O)O)c1ccccc1 under Potency: inconclusive: 70.8 µM [inhibitor, partial curve, poor fit]
# Value of O=Cc1ccc(-c2cccc(C(=O)O)c2)o1 under Potency: inconclusive: 44.7 µM [inhibitor, partial curve]

# In another format: results already given
row	SMILES	Potency
17	Cc1cc(/C=C2\SC(=S)NC2=O)c(C)n1-c1cccc(O)c1	inconclusive: 20 µM [inhibitor, full curve]
18	CSc1ccc(CCNC(=O)c2ccc3c(c2)c(C)c(C)n3Cc2ccc(F)cc2)cc1	inconclusive: 79.4 µM [inhibitor, partial curve, poor fit]

# The results go on.

row,SMILES,Potency
1,CCC(NC(=O)NCc1ccccc1)(C(F)(F)F)C(F)(F)F,inactive
2,Cc1ccsc1C(=O)N1CCN(C(=O)c2ccco2)CC1,"inconclusive: 79.4 µM [inhibitor, single point]"
3,C/C(=N\Nc1ccc(Cl)c(C(=O)O)c1)c1cc2ccccc2o1,inactive
4,Cc1nn(CC(=O)NCc2ccccc2Br)c(=O)c2cc3occc3n12,"inconclusive: 3.98 µM [inhibitor, full curve, poor fit]"
5,O=C(Nc1nc(-c2ccc(Cl)cc2)cs1)c1cccnc1,"inconclusive: 39.8 µM [inhibitor, single point]"
6,O=C(COC(=O)c1ccc(S(=O)(=O)NCc2ccco2)cc1)NCC1CCCCC1,"inconclusive: 39.8 µM [inhibitor, single point]"
7,CCOc1ccccc1NC(=O)CSc1nccn1Cc1ccc(F)cc1,inactive
8,Cc1cc(C(=O)COC(=O)CNC(=O)c2ccc(F)cc2)c(C)n1Cc1ccco1,"inconclusive: 56.2 µM [inhibitor, partial curve, poor fit]"
9,C[C@@H]1[C@@H](Sc2ccccc2)CC(=O)O[C@@H]1c1ccc(-c2ccccc2)cc1,"inconclusive: 44.7 µM [inhibitor, partial curve, poor fit]"
10,O=c1oc2ccc3ccccc3c2cc1-c1nnc(Nc2cccc(F)c2)s1,inactive
11,O=C(Nc1ccon1)c1sc2ccccc2c1Cl,"inconclusive: 79.4 µM [inhibitor, partial curve, poor fit]"
12,CCCCCCSc1nc(O)c(C2OC(=O)c3c2ccc(OC)c3OC)c(=O)n1CC (stereo not drawn),"inconclusive: 10 µM [inhibitor, full curve, poor fit]"
13,COC(=O)[C@]1(C)N[C@H](CN(C)S(=O)(=O)c2ccc(F)cc2)[C@@H]2C(=O)N(Cc3ccccc3)C(=O)[C@@H]21,"inconclusive: 20 µM [inhibitor, partial curve, poor fit]"
14,O=C1Nc2ccccc2C1=Nc1cccc([N+](=O)[O-])c1,"inconclusive: 39.8 µM [inhibitor, partial curve, poor fit]"
15,CC(=O)NNc1nc(-c2ccccc2)cs1,"inconclusive: 39.8 µM [inhibitor, single point]"
16,C=CCCC(=O)Nc1nc(C)c(-c2csc(Nc3cc(OC)ccc3OC)n2)s1,"inconclusive: 28.2 µM [inhibitor, single point]"
17,CCN(CC)CCn1c(NCc2cc(OC)ccc2OC)nc2ccccc21,"inconclusive: 22.4 µM [inhibitor, partial curve, poor fit]"
18,COc1cc(C(=O)O)c2c(c1C)OC(=O)c1c(C)cc(O)c(C=O)c1O2,inactive
19,CCOC(=O)COc1ccc(C(=O)c2ccccc2)c(O)c1,"inconclusive: 0.891 µM [inhibitor, partial curve, poor fit]"
20,O=C(N[C@@H](Cc1ccccc1)C(=O)OCc1ccccc1)c1nc[nH]c1C(=O)NC1CCNCC1,"inconclusive: 31.6 µM [inhibitor, partial curve, poor fit]"
21,COc1ccc(CNC(=O)c2cnc(C)cn2)cc1,"inconclusive: 11.2 µM [inhibitor, partial curve, poor fit]"

row,SMILES,Potency
1,Cc1cccn2c(=O)c3cc(C(=O)NCC4CCCO4)c(=N)n(C4CCCCC4)c3nc12 (stereo not drawn),"inconclusive: 25.1 µM [inhibitor, single point]"
2,Cc1cc(C)nc(Nc2nc(=O)c3ccccc3s2)n1,"inconclusive: 0.794 µM [inhibitor, full curve, poor fit]"
3,S=c1nc(C2CC2)[nH]c2ccccc12,"inconclusive: 15.8 µM [inhibitor, partial curve, poor fit]"
4,N#Cc1c(NC(=O)CSc2ncnc3sccc23)oc(-c2ccco2)c1-c1ccco1,"inconclusive: 12.6 µM [inhibitor, partial curve, poor fit]"
5,Cc1ccc(CNC(=O)C2CCN(c3ncnc4c3nc3n4CCCCC3)CC2)cc1,inactive
6,Cc1ccc(C(=O)CSc2nnc3ccc4ccccc4n23)cc1,inactive
7,CCCCCCC(=O)Nc1nc(C)c(-c2csc(Nc3cc(OC)ccc3OC)n2)s1,"inconclusive: 25.1 µM [inhibitor, partial curve, poor fit]"
8,COc1ccc(/C=N/Nc2nnc(C)n2N)cc1OC(C)=O,"inconclusive: 0.891 µM [inhibitor, full curve, poor fit]"
9,Cc1cc(C)cc(C(=O)Nn2cnnc2)c1,inactive
10,O=C(Cc1ccc(F)cc1)NCCc1csc(-c2ccc(C(F)(F)F)cc2)n1,"inconclusive: 89.1 µM [inhibitor, single point]"
11,CCOCCn1ccc2c(OCC(=O)NCc3ccccc3)cccc2c1=O,"inconclusive: 100 µM [inhibitor, single point]"
12,CCOc1ccc(=O)n(-c2ccccc2)n1,"inconclusive: 35.5 µM [inhibitor, single point]"
13,O=[N+]([O-])c1cnc(Sc2ccncn2)s1,"inconclusive: 3.55 µM [inhibitor, partial curve, poor fit]"
14,COc1ccc(-c2ccc3c(c2)S(=O)(=O)c2cccc(C(=O)NCc4cc(C)oc4C(F)(F)F)c2C3=O)cc1OC,"inconclusive: 12.6 µM [inhibitor, partial curve, poor fit]"
15,CCOc1cc(/C=C2/COc3ccccc3C2=O)ccc1OCC(=O)N(C)C,"inconclusive: 35.5 µM [inhibitor, partial curve, poor fit]"
16,COc1cc(/C=C2\N=C(c3ccccc3)OC2=O)ccc1OC(C)=O,"inconclusive: 31.6 µM [inhibitor, partial curve, poor fit]"
17,Cc1ccc(-n2c(=O)[nH]c3cc(C(=O)NCCc4ccccc4)ccc3c2=O)cc1,inactive
18,Cc1cccn2c(=O)c3cc(C(=O)NCCc4ccccc4)sc3nc12,"inconclusive: 17.8 µM [inhibitor, partial curve, poor fit]"
19,CCCc1nc2ccccc2c2nc(N)nn12,"inconclusive: 100 µM [inhibitor, single point]"
20,N#CCCN(C(=O)CSc1ccc2c(c1)OCCO2)c1ccc(F)cc1,"inconclusive: 10 µM [inhibitor, partial curve]"
21,CCN(C(=O)CSc1nc2ccccc2n1Cc1ccccc1C#N)c1ccccc1,inactive

# — PubChem BioAssay AID588590 (National Center for Advancing Translational Sciences (NCATS), 2011)
